Data reported in paper PMC7850971.
These are yes or no findings as the source states them, for the method shown. In cells and extracts the contact can be indirect. Some results given as binding are weak or reduced against the parent protein; the word gives no strength. Values belong to the molecule of their own block, whether it stands above or below them.

The chains behind the UniProt entries cited, without tags or fusion partners.
UniProt Q8NEB9: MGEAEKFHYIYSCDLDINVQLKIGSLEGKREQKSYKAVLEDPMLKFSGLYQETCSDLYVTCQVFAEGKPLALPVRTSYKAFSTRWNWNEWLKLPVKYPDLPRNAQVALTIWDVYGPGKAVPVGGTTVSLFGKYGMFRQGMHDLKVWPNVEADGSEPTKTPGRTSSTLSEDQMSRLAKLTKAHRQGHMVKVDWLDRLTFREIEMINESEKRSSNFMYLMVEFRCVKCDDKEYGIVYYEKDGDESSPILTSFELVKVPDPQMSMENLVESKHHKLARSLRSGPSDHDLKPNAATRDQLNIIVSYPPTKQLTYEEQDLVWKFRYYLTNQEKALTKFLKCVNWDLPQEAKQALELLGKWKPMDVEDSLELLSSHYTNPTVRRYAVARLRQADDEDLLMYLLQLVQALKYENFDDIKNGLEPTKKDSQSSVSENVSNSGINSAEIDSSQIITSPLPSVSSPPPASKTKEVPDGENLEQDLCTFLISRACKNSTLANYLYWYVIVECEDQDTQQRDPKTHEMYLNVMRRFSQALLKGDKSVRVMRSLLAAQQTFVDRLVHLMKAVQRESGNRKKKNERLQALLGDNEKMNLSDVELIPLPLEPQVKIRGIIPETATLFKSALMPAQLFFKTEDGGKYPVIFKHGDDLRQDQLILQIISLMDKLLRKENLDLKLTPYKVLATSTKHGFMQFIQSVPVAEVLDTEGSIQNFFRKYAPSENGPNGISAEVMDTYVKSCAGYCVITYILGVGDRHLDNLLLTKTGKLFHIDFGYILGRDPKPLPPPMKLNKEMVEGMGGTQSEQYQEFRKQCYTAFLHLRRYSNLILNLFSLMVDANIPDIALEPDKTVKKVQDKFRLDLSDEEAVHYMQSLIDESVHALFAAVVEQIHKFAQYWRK
UniProt Q14457: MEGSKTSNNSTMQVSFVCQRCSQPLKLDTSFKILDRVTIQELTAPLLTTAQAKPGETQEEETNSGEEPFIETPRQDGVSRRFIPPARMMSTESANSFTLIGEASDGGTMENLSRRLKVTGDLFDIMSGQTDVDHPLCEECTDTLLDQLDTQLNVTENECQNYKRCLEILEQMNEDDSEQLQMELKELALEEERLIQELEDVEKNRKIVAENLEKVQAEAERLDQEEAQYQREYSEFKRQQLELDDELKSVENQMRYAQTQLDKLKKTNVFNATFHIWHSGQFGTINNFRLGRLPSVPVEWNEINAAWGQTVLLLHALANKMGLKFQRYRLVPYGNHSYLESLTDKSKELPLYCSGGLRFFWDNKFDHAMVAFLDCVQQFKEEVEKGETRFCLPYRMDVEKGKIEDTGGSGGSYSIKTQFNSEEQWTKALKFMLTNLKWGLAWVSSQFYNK
UniProt Q99570: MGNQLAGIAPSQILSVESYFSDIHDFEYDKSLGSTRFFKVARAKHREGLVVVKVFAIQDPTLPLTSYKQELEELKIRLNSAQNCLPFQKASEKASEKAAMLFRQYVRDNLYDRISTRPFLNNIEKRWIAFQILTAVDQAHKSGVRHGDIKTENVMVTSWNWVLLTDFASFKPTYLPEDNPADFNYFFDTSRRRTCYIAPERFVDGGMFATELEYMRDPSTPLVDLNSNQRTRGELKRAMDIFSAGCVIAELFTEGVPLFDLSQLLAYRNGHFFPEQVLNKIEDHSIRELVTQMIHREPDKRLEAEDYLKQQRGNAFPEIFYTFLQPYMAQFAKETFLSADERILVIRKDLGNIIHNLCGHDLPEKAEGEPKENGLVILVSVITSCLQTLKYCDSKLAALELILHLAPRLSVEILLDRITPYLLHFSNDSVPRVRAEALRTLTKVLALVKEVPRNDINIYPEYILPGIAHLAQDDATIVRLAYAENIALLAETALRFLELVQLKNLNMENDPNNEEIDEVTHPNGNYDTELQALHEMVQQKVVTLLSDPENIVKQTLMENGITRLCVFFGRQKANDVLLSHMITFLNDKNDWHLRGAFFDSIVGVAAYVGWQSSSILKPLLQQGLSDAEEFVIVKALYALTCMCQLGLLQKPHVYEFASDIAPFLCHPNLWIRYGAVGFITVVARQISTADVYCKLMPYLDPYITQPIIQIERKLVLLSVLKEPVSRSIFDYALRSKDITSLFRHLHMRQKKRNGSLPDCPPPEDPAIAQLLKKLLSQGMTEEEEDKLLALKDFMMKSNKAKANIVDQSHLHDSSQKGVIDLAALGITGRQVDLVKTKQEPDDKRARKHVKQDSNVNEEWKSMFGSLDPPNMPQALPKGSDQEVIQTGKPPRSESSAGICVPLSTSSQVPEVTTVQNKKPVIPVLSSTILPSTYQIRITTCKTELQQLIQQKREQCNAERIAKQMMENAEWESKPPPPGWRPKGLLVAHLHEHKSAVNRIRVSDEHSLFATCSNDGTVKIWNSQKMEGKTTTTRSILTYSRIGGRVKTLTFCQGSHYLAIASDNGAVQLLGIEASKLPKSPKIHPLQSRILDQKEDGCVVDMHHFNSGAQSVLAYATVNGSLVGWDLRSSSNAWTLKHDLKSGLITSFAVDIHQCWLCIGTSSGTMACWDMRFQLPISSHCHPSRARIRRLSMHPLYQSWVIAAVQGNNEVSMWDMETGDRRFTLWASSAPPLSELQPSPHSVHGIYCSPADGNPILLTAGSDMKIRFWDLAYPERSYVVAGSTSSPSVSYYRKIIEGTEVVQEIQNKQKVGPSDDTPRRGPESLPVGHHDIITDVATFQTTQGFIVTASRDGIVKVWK
UniProt Q562E7: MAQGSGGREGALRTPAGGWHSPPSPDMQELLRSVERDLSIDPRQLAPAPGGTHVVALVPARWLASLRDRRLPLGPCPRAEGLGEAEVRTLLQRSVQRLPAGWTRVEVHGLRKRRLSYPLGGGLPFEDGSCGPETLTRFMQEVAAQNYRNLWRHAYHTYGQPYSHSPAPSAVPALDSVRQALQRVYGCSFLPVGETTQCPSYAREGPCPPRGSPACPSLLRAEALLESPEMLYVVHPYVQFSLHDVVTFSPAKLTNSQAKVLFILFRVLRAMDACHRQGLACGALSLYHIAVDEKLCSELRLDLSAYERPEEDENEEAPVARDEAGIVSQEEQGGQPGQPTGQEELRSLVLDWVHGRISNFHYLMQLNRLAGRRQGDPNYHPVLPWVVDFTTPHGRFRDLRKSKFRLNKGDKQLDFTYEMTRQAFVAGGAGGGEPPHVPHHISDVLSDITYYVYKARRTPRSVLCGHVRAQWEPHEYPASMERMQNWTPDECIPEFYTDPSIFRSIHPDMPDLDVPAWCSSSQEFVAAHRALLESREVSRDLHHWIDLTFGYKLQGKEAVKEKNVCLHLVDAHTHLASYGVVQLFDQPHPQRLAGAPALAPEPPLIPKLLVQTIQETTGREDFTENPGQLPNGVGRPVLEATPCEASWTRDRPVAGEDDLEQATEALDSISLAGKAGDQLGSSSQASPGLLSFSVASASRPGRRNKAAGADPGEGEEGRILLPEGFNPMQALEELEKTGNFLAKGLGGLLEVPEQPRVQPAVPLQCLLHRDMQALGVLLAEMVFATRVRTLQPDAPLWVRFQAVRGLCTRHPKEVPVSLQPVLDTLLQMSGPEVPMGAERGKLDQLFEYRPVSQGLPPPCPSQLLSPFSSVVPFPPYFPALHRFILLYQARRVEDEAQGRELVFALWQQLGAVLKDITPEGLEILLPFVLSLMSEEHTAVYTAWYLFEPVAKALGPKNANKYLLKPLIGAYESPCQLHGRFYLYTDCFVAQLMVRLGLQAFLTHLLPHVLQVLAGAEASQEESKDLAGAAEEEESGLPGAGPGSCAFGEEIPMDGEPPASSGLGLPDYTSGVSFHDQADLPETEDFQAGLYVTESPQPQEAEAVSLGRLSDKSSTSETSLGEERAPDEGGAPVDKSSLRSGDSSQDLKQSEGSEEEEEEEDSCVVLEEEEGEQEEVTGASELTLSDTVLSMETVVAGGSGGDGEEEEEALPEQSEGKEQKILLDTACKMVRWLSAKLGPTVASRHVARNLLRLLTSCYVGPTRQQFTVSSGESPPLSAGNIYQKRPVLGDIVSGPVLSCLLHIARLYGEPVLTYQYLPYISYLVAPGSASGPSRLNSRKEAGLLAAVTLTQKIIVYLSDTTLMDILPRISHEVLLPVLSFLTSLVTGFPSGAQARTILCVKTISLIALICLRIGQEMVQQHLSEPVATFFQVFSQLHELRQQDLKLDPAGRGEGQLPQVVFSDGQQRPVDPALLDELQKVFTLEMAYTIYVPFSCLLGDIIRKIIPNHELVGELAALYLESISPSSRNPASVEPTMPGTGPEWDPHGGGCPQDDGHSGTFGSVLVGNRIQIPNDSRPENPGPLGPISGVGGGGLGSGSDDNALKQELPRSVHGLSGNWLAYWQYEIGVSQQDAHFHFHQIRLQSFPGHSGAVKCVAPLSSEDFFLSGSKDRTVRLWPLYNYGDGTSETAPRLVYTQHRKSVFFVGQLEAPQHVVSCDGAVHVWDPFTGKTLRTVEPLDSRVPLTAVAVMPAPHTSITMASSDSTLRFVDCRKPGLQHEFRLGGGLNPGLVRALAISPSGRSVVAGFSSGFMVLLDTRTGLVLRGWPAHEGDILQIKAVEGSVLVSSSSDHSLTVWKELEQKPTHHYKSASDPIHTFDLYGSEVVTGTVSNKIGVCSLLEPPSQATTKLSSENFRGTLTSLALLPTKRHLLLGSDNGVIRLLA

Key:
[1] = target: GFP-VPS34 (UniProt Q8NEB9); assay: co-IP; expression vectors co-transfected into HEK293 cells, lysed after 48 h in IP buffer (20 mM Tris-HCl pH 7.5, 100 mM NaCl, 1% NP40, 1 mM PMSF, 1% glycerol); FLAG (M2) or HA antibody beads overnight at 4 °C; blot
[2] = target: HA-Beclin1 (UniProt Q14457); assay: as above
[3] = target: V5-VPS15 (UniProt Q99570); assay: as above
[4] = target: WDR81 (as in the co-IP with SARA, Fig. S13d) (UniProt Q562E7); assay: co-IP; co-IP of SARA and WDR81 (Fig. S13d); cells and constructs not given

binding [1]: no binding
binding [2]: binds
binding [3]: binds
Molecule: FLAG-WDR81 (from UniProt Q562E7 1-1941)

binding [4]: no binding
B1: SARA (SMAD anchor for receptor activation) (protein, UniProt O95405 1-1425)
chain: MENYFQAEAYNLDKVLDEFEQNEDETVSSTLLDTKWNKILDPPSHRLSFNPTLASVNESAVSNESQPQLKVFSLAHSAPLTTEEEDHCANGQDCNLNPEIATMWIDENAVAEDQLIKRNYSWDDQCSAVEVGEKKCGNLACLPDEKNVLVVAVMHNCDKRTLQNDLQDCNNYNSQSLMDAFSCSLDNENRQTDQFSFSINESTEKDMNSEKQMDPLNRPKTEGRSVNHLCPTSSDSLASVCSPSQLKDDGSIGRDPSMSAITSLTVDSVISSQGTDGCPAVKKQENYIPDEDLTGKISSPRTDLGSPNSFSHMSEGILMKKEPAEESTTEESLRSGLPLLLKPDMPNGSGRNNDCERCSDCLVPNEVRADENEGYEHEETLGTTEFLNMTEHFSESQDMTNWKLTKLNEMNDSQVNEEKEKFLQISQPEDTNGDSGGQCVGLADAGLDLKGTCISESEECDFSTVIDTPAANYLSNGCDSYGMQDPGVSFVPKTLPSKEDSVTEEKEIEESKSECYSNIYEQRGNEATEGSGLLLNSTGDLMKKNYLHNFCSQVPSVLGQSSPKVVASLPSISVPFGGARPKQPSNLKLQIPKPLSDHLQNDFPANSGNNTKNKNDILGKAKLGENSATNVCSPSLGNISNVDTNGEHLESYEAEISTRPCLALAPDSPDNDLRAGQFGISARKPFTTLGEVAPVWVPDSQAPNCMKCEARFTFTKRRHHCRACGKVFCASCCSLKCKLLYMDRKEARVCVICHSVLMNAQAWENMMSASSQSPNPNNPAEYCSTIPPLQQAQASGALSSPPPTVMVPVGVLKHPGAEVAQPREQRRVWFADGILPNGEVADAAKLTMNGTSSAGTLAVSHDPVKPVTTSPLPAETDICLFSGSITQVGSPVGSAMNLIPEDGLPPILISTGVKGDYAVEEKPSQISVMQQLEDGGPDPLVFVLNANLLSMVKIVNYVNRKCWCFTTKGMHAVGQSEIVILLQCLPDEKCLPKDIFNHFVQLYRDALAGNVVSNLGHSFFSQSFLGSKEHGGFLYVTSTYQSLQDLVLPTPPYLFGILIQKWETPWAKVFPIRLMLRLGAEYRLYPCPLFSVRFRKPLFGETGHTIMNLLADFRNYQYTLPVVQGLVVDMEVRKTSIKIPSNRYNEMMKAMNKSNEHVLAGGACFNEKADSHLVCVQNDDGNYQTQAISIHNQPRKVTGASFFVFSGALKSSSGYLAKSSIVEDGVMVQITAENMDSLRQALREMKDFTITCGKADAEEPQEHIHIQWVDDDKNVSKGVVSPIDGKSMETITNVKIFHGSEYKANGKVIRWTEVFFLENDDQHNCLSDPADHSRLTEHVAKAFCLALCPHLKLLKEDGMTKLGLRVTLDSDQVGYQAGSNGQPLPSQYMNDLDSALVPVIHGGACQLSEGPVVMELIFYILENIV
